The values below come from publication PMC11847538.

No constants are given. Whether binding was seen depends on the method and setting. In cells and extracts the contact can be indirect. Some entries that bind do so weakly or less than the wild type. Where a sequence is shown, tags or fusion partners need not be part of it.

The experiment addresses T1, Flag-tagged Miy1 (S. cerevisiae) (UniProt Q08930).
T1 sequence: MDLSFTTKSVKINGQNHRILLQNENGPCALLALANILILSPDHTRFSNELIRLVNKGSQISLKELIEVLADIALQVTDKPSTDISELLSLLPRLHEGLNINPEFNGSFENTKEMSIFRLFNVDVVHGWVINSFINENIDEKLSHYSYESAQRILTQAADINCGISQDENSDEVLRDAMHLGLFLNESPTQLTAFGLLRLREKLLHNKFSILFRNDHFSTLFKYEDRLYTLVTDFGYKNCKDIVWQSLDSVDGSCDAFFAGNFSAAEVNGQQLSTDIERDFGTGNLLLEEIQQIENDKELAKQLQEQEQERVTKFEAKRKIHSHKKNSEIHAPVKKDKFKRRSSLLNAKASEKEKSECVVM
The experiment can be described thus: co-IP; lysate of yeast cells cotransformed with pAD4M-Gpa1 and pYES-FLAG-Miy1 or empty vector; anti-FLAG M2 affinity resin, 2 h, 4 °C; lysis buffer 50 mM NaPO4 pH 7.5, 400 mM NaCl, 0.1% Triton X-100, 10% glycerol; immunoblot with anti-Gpa1.

B1: Gpa1 (protein, UniProt P08539 1-472)
chain: MGCTVSTQTIGDESDPFLQNKRANDVIEQSLQLEKQRDKNEIKLLLLGAGESGKSTVLKQLKLLHQGGFSHQERLQYAQVIWADAIQSMKILIIQARKLGIQLDCDDPINNKDLFACKRILLKAKALDYINASVAGGSDFLNDYVLKYSERYETRRRVQSTGRAKAAFDEDGNISNVKSDTDRDAETVTQNEDADRNNSSRINLQDICKDLNQEGDDQMFVRKTSREIQGQNRRNLIHEDIAKAIKQLWNNDKGIKQCFARSNEFQLEGSAAYYFDNIEKFASPNYVCTDEDILKGRIKTTGITETEFNIGSSKFKVLDAGGQRSERKKWIHCFEGITAVLFVLAMSEYDQMLFEDERVNRMHESIMLFDTLLNSKWFKDTPFILFLNKIDLFEEKVKSMPIRKYFPDYQGRVGDAEAGLKYFEKIFLSLNKTNKPIYVKRTCATDTQTMKFVLSAVTDLIIQQNLKKIGII
With B1, the binding entry is “binds”.
